Measurements taken from PubChem BioAssay AID504327 (National Center for Advancing Translational Sciences (NCATS), 2011).
Several values for one entry are separate records, joined by “and”; a condition that tells them apart may be missing. Equal values may be shown once. In all, about 390,000 compounds went through this assay and about 820 (0.21%) were called active. The inconclusive results got no clear call from the source; some entries with a clear call stand among them for comparison. The call rests on the fitted dose curve; in most records, active means well fitted inhibition curve with a large enough effect; inconclusive means small, poorly fitted or top-dose-only effect, or another doubt; inactive means no such curve, though single readings can be large or run the other way. Where the call is inconclusive, the potency comes from a doubtful curve fit.

By UniProt entry, the sequences of proteins in these tests, tags left out.
UniProt Q92830, whole entry, looked up: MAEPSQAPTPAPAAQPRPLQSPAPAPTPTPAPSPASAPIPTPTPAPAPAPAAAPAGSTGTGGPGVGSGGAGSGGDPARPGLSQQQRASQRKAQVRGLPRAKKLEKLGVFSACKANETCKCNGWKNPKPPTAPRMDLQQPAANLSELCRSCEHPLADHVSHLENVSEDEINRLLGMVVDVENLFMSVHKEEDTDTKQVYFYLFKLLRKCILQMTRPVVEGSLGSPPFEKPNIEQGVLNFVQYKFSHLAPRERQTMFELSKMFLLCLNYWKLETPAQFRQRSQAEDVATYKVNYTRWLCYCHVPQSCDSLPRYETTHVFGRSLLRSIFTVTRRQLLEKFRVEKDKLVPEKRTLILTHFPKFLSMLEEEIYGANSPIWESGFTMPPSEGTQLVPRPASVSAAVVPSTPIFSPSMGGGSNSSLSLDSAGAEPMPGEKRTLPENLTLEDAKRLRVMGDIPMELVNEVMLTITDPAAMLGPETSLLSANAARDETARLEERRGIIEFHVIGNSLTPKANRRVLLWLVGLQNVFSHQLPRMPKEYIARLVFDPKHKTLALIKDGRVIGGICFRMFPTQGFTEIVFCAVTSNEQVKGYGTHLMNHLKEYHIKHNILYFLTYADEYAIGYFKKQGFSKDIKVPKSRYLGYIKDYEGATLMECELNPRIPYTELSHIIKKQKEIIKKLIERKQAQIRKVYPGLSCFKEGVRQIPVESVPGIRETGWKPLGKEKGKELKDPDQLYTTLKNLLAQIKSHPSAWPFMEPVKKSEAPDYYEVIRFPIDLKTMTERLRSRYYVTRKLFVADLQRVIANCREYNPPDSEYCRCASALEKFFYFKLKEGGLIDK

molecular target: Histone acetyltransferase KAT2A (Homo sapiens) (UniProt Q92830); assay: qHTS Assay for Inhibitors of GCN5L2; conditions: GCN5L2 HAT assay, ThioGlo1 CoA-SH fluorescence; activity change, negative = inhibition: at 58.9 µM (top of the series) unless noted
How it was run: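 Compounds, pin-transferred from DMSO stocks, meet 20nM GCN5L2 for 15 min before the reaction begins with H3(1-25) peptide (75uM) and acetyl-CoA (70uM). Thiol-reactive ThioGlo1 reports CoA release over 20 min at room temperature.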
On the % scale 0 is the no-effect control and ±100 the full control effect; potency means the concentration at half of the fitted maximal effect.

SMILES	activity change, negative = inhibition	Potency
COc1ccc(CNCCc2ccc3c(c2)OCO3)cc1Br	inactive: -26.2%	
CCCC1=Nc2cc(C(=O)NCCCN(CC)CC)ccc2Sc2ccccc21	inactive: -8.69%	
COc1ccc(Cn2c(N)c(C(=O)NCc3ccco3)c3nc4ccccc4nc32)cc1OC	inactive: -5.86%	
O=C1NC(=O)N(Cc2ccc(F)cc2)C(=O)/C1=C\c1ccc([N+](=O)[O-])s1		inconclusive: 39.8 µM [inhibitor, single point]
O=C(N/N=C/c1ccc([N+](=O)[O-])o1)c1cc([N+](=O)[O-])cc([N+](=O)[O-])c1O		inconclusive: 31.6 µM [inhibitor, single point]
CCn1c(O)c(C=Nc2ccc(N3CCOCC3)cc2)c(=O)n(CC)c1=S		inconclusive: 0.501 µM [inhibitor, partial curve, poor fit]
NCCCC[C@H](N[C@@H](CCc1ccccc1)C(=O)O)C(=O)N1CCC[C@H]1C(=O)O		inconclusive: 7.94 µM [inhibitor, partial curve]
COC(=O)[C@@H](N)CCCN=C(N)N[N+](=O)[O-]		inconclusive: 2 µM [inhibitor, partial curve, poor fit]
NNC(=O)c1ccc(O)cc1		inconclusive: 39.8 µM [inhibitor, single point]
CS(=O)(=O)NNP(=O)(NNS(C)(=O)=O)NC(=O)c1ccccc1		inconclusive: 0.708 µM [inhibitor, full curve, poor fit]
COP(=O)(OC)c1nc(-c2cccc3ccccc23)oc1N1CCCCC1		inconclusive: 39.8 µM [inhibitor, single point]
CCc1ccc(N2C(=O)NC(=O)/C(=C\c3cc(C)n(-c4cc(C(=O)O)cc(C(=O)O)c4)c3C)C2=O)cc1		inconclusive: 2.24 µM [inhibitor, partial curve, poor fit]
Cc1nn(Cc2ccccc2)c2c1C(c1ccco1)C(C#N)=C(N)O2 (configuration not stated)		inconclusive: 39.8 µM [inhibitor, single point]
CN1CCN2c3ccccc3CC3(C(=O)N(C)C(=O)N(C)C3=O)C2C1 (configuration not stated)		inconclusive: 39.8 µM [inhibitor, single point]
Cc1ccccc1-n1nc(C)c2c1NC(=O)CSC2c1ccc(Cl)cc1 (configuration not stated)	inactive: -2.53%	
COc1cc2c(cc1OC)[C@H](C)NCC2		inconclusive: 11.2 µM [inhibitor, single point]
CC[C@H](C)[C@H](NC(=O)[C@@H]1CCCN1C(=O)[C@H](CCC(=O)O)NC(=O)[C@@H](NC(=O)[C@H](Cc1ccccc1)NC(=O)[C@@H]1CCCN1C(=O)[C@@H](N)Cc1ccc(O)cc1)C(C)C)C(=O)O	inactive: -1.5%	
Fc1ccc(Cn2nnnc2CN2CCC(n3nnc4cc(C(F)(F)F)ccc43)CC2)cc1	inactive: -1.61%	
COC(=O)N(c1ccc(OC)cc1)P1(=S)OCCC(C)O1 (configuration not stated)		inconclusive: 4.47 µM [inhibitor, full curve, poor fit]
C[C@H](CCC(=O)O)C[C@H](C)C[C@H](C)C(=O)/C=C(\O)[C@H](C)C[C@H](C)C/C=C/[C@@H](C)[C@@H](O)[C@@H](C)[C@@H](O)C[C@@H]1CC[C@@](C)(C2CC[C@@](C)([C@@H](C)O)O2)O1 (some centres not stated)		inconclusive: 25.1 µM [inhibitor, single point]
COP(=S)(OC)SCN1C(=O)c2ccccc2C1=O		inconclusive: 39.8 µM [inhibitor, single point]
CC1=C(O)C(=O)C=C2C1=CC=C1[C@]2(C)CC[C@@]2(C)C3C[C@](C)(C(=O)O)CC[C@@]3(C)CC[C@@]12C (some centres not stated)		active: 12.6 µM
COCCCn1c(N)c(C(=O)NCc2ccco2)c2nc3ccccc3nc21		inconclusive: 35.5 µM [inhibitor, single point]

SMILES	activity change, negative = inhibition	Potency
Cc1cc(OCC(=O)N2CCC(C(=O)O)(c3ccccc3)CC2)c2c(C)c(C)c(=O)oc2c1		inconclusive: 17.8 µM [inhibitor, partial curve, poor fit]
Cc1ccc(-c2nc(N3CCOCC3)s[n+]2-c2ccccc2)cc1		inconclusive: 25.1 µM [inhibitor, single point]
O=S1(=O)N(Cc2ccccc2Cl)CCCN1Cc1ccccc1Cl	inactive: -6.79%	
O=C(O)CC1OCC=C2CN3CCC45C6=CC(=O)C(=O)C([N+](=O)[O-])=C6NC4C1C2CC35 (configuration not stated)	inactive: -15%	
CN(N=O)c1cc(O)ccc1O		inconclusive: 28.2 µM [inhibitor, single point]
CN(C)CC1CSCCC1(O)c1ccccc1 (configuration not stated)	inactive: -2.6%	
Cc1cccc(-n2c(C)nc3ccc(Cl)cc3c2=O)c1	inactive: -13.1%	
NC(Cc1cc(O)c(O)cc1O)C(=O)O (configuration not stated)		active: 12.6 µM and active: 631 nM
Cc1ccc(OCCOc2cccc(C=C3C(=O)NC(=O)NC3=O)c2)c(C)c1		inconclusive: 39.8 µM [inhibitor, single point]
CC(C)[C@H](N)C(=O)OCCOCn1cnc2c(=O)[nH]c(N)nc21		inconclusive: 0.708 µM [inhibitor, full curve, poor fit]
COc1ccc(OC)c(N2C(=O)/C(=C/c3ccco3)C(=O)NC2=S)c1		active: 12.6 µM
CC(=O)N1CCN(CC(=O)Nc2ccc(C#N)c(Cl)c2)CC1	inactive: -3.97%	
CC(C)N1C(=O)/C(=C/C=C/c2ccco2)C(=O)N(Cc2ccco2)C1=O		inconclusive: 0.562 µM [inhibitor, full curve, poor fit]
Cc1ccccc1N1C(=O)NC(=O)/C(=C\c2ccc3c(c2)CCCN3Cc2ccccc2)C1=O		inconclusive: 31.6 µM [inhibitor, single point]
O=C(c1cc(Br)ccc1Cl)N1CCC2(CC1)OCCO2		inconclusive: 39.8 µM [inhibitor, single point]
C[C@]12CC[C@H](O)C[C@H]1CCC1C2CC[C@]2(C)[C@@H](c3ccc(=O)oc3)C[C@H]3O[C@]132 (some centres not stated)	inactive: 0.834%	
Cc1cc(Cc2c(O)[nH]c(=S)[nH]c2=O)ccc1OC(C)C		inconclusive: 31.6 µM [inhibitor, single point]
C=CCN1C(=O)CSc2ccc(C(=O)N3CCC4(CC3)OCCO4)cc21		inconclusive: 0.708 µM [inhibitor, single point]
O=C1NC(=S)NC(=O)C1=Cc1cccn1-c1ccc(O)cc1		inconclusive: 22.4 µM [inhibitor, single point]
COc1cc(CCN)ccc1O		inconclusive: 4.47 µM [inhibitor, single point]
O=C(COc1ccc2ccc(=O)oc2c1)N1CCC(C(=O)O)(c2ccccc2)CC1		active: 25.1 µM
COC(=O)C(c1ccccc1)C1CCCCN1 (configuration not stated)		inconclusive: 35.5 µM [inhibitor, single point]
COC(=O)C1=C(c2ccc3ccccc3c2)C[C@@H]2CC[C@H]1N2C(=O)NCC1CC1		inconclusive: 20 µM [inhibitor, partial curve]

Ordered by count of non-hydrogen atoms (descending): three of the compounds above
SMILES	activity change, negative = inhibition	Potency
O=C(O)CC1OCC=C2CN3CCC45C6=CC(=O)C(=O)C([N+](=O)[O-])=C6NC4C1C2CC35 (configuration not stated)	inactive: -15%	
COC(=O)C1=C(c2ccc3ccccc3c2)C[C@@H]2CC[C@H]1N2C(=O)NCC1CC1		inconclusive: 20 µM [inhibitor, partial curve]
Cc1cc(Cc2c(O)[nH]c(=S)[nH]c2=O)ccc1OC(C)C		inconclusive: 31.6 µM [inhibitor, single point]

Further results.

SMILES	activity change, negative = inhibition	Potency
CCCCC1C(=O)NC(=S)NC1=O		inconclusive: 39.8 µM [inhibitor, single point]
COc1ccc(-n2c(O)c(C(C)=NCCc3c[nH]c4ccccc34)c(=O)[nH]c2=O)cc1		inconclusive: 39.8 µM [inhibitor, single point]
O=C1NC(=S)N(c2ccc(F)cc2)C(=O)/C1=C/c1ccco1		active: 5.62 µM
CN(C)c1ccc(CCN2CCOCC2)cc1	inactive: 2.39%	
Brc1ccc(Oc2ccc(Br)cc2Br)c(Br)c1		inconclusive: 39.8 µM [inhibitor, single point]
O=c1ccc2cc(O[C@@H]3O[C@@H](CO)[C@H](O)[C@@H](O)[C@@H]3O)c(O)cc2o1		active: 22.4 µM
CCC(C)(C)O	inactive: 5.5%	
O=C(O)COc1ccc(/C=C2/SC(=S)N(Cc3ccccc3)C2=O)cc1		inconclusive: 35.5 µM [inhibitor, single point]
Cc1ccc(C(=O)N[C@@H](C)CN2C3=NC[C@H](Cc4ccccc4)N3C[C@H]2Cc2ccc(O)cc2)cc1Br	inactive: -6.21%	
COCCNC(=O)CN1C(=O)CN=C(c2ccccc2)c2ccccc21	inactive: -2.73%	
O=C(O)c1cc(Oc2ccc([N+](=O)[O-])cc2)cc(Oc2ccc([N+](=O)[O-])cc2)c1		inconclusive: 39.8 µM [inhibitor, single point]
Cc1ccc(N2C(=O)NC(=O)/C(=C/C=C/c3ccco3)C2=O)cc1	inactive: 21.7%	
COC(=O)COc1ccc(C(c2c(C)[nH][nH]c2=O)c2c(C)[nH][nH]c2=O)cc1		inconclusive: 0.708 µM [inhibitor, partial curve, poor fit]
CC(C)C1C(=O)N2CCC[C@H]2[C@]2(O)O[C@](NC(=O)[C@@H]3C=C4c5cccc6[nH]cc(c56)C[C@H]4N(C)C3)(C(C)C)C(=O)N12 (some centres not stated)	inactive: -12.2%	
O=C(Cn1cnc2ccccc2c1=O)NCCC(=O)N1CCC2(CC1)OCCO2	inactive: -5.37%	
CC1CC(C)CN(C(=O)C2CCC(CNc3c(N4CCCCC4)c(=O)c3=O)CC2)C1 (configuration not stated)		inconclusive: 28.2 µM [inhibitor, partial curve]
COC(=O)C1=C(c2cccc(OCc3ccccc3)c2)C[C@@H]2CC[C@H]1N2C(=O)NCc1ccccc1OC	inactive: -6.61%	
O=C1OC(c2cc(I)c(O)c(I)c2)(c2cc(I)c(O)c(I)c2)c2ccccc21		active: 8.91 µM
CC(C)c1cc2c(c(O)c1O)[C@]1(C(=O)O)CCCC(C)(C)C1CC2 (some centres not stated)	inactive: -6.18%	
NCC(CC(=O)O)C1CCCCC1 (configuration not stated)	inactive: 3.24%	
COc1ccc(/C=C2/C(=O)N(Cc3ccco3)C(=O)N(C(C)C)C2=O)cc1		inconclusive: 35.5 µM [inhibitor, single point]
